Source: PubChem BioAssay AID504467 (National Center for Advancing Translational Sciences (NCATS), 2011)
The campaign covered roughly 330,000 compounds. About 7,700 (2.3%) were called active. The shares of active, inactive and inconclusive entries below differ from those in the screen. Calls follow the shape of the dose curve; as a rule, active = well fitted inhibition curve with a large enough effect; inconclusive = small, poorly fitted or top-dose-only effect, or effect the other way; inactive = flat fitted curve, though single readings scatter. Potencies of inconclusive entries are doubtful fits and often do not repeat.

Assay: qHTS screen for small molecules that inhibit ELG1-dependent DNA repair in human embryonic kidney (HEK293T) cells expressing luciferase-tagged ELG1; also: nearly all actives have a fitted effect of over 55% in size
Conditions: HEK293T ELG1-luciferase reporter, luminescence, 16 h, DNA damage induced by 5-fluorouridine; activity change, negative = inhibition: at 46.1 µM (top of the series)
Summary of the method: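 Step one: seed 2,000 cells per well. Step two: pin-transfer compound or DMSO alongside 5-fluorouridine. Step three: incubate 16 hr, 37 °C, 5% CO2. Step four: add ONE-Glo, wait 30 min, read luminescence.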
% is scaled to controls: 0 for no effect and ±100 for the full control effect; potency is read from the fitted curve at half-maximal effect.

Question: Which Potency does the source give for `Brc1ccc(-c2csc(N3CCC(c4ccccc4)C3)n2)cc1` (stereo not given) here?
Answer: The Potency was inconclusive: 29.1 µM [activator, single point].

Question: For `CN(C)S(=O)(=O)Oc1ccsc1C(=O)Nc1ccc(Cl)c(Cl)c1`, which Potency is on record?
Answer: Its Potency is inconclusive: 20.6 µM [inhibitor, partial curve, poor fit].

Question: For `Nc1cccc(CCc2nc3cc4ccccc4cc3[nH]2)c1`, which Potency is on record?
Answer: The Potency was inconclusive: 10.3 µM [activator, partial curve].

Question: Which Potency does the source give for `Cc1ccc(Cl)cc1NC(=O)Cn1c(C)csc1=O` here?
Answer: The Potency was inconclusive: 10 µM [activator, partial curve].

Question: Which “activity change, negative = inhibition” value does the source give for `COc1cccc(/C=C2/Oc3ccccc3N(CC(=O)NCC3CCCO3)C2=O)c1` (stereo not given) here?
Answer: The value was inactive: -14.3%.

Question: For `CCc1ccc(S(=O)(=O)Nc2c(NC3CCCCC3)c3ccccc3oc2=O)cc1`, which “activity change, negative = inhibition” value is on record?
Answer: Its value is inactive: -0.0198%.

Question: Which Potency does the source give for `CN(CCC#N)c1ncnc2scc(-c3ccccc3)c12` here?
Answer: The Potency was inconclusive: 29.1 µM [inhibitor, single point].

Question: With `O=C1N/C(=C/c2ccc(N3CCCC3)cc2)C(=O)N1c1ccccc1` as the molecule, how does the Potency read?
Answer: The Potency was inconclusive: 20.6 µM [activator, single point].

Question: For `COCCOC(=O)c1[nH]c2c(c1C)C(=O)CC(c1ccccc1)C2` (stereo not given), which Potency is on record?
Answer: Its Potency is inconclusive: 1.16 µM [inhibitor, single point].

Question: With `CCC[C@@H](CN1CCC[C@H]1CN1C(N)=NC[C@H]1CC(C)C)N1C[C@@H]([C@H](C)CC)N(CCc2ccc(Cl)c(Cl)c2)C1=N` as the molecule, how does the “activity change, negative = inhibition” value read?
Answer: Its value is inactive: -0.293%.

Question: With `FC(F)Oc1ccc(NC(=S)NN2CCOCC2)cc1` as the molecule, how does the “activity change, negative = inhibition” value read?
Answer: Its value is inactive: 1.9%.

Question: For `O=C(COC(=O)/C=C/c1cccs1)NC(c1ccccc1)c1ccccc1`, which Potency is on record?
Answer: The Potency was inconclusive: 18.4 µM [activator, partial curve].

Question: For `COc1ccc(F)cc1CN1CCN(C(=O)CCC(=O)Nc2nnc(CC(C)C)s2)CC1`, which “activity change, negative = inhibition” value is on record?
Answer: The value was inactive: -0.791%.

Question: Which Potency does the source give for `COc1ccc(-c2cc(C(=O)Nc3ccc(C)c(N)c3)c3ccccc3n2)cc1` here?
Answer: Its Potency is inconclusive: 32.6 µM [inhibitor, single point].

Question: Which Potency does the source give for `COc1ccc(/C=N/NC(=O)c2cc(-c3ccccc3OC(C)C)nc3ccccc23)cc1CN1CCOCC1` here?
Answer: The Potency was inconclusive: 23.1 µM [inhibitor, single point].

Question: With `c1ccc(-c2cc(-c3nnc4n3N=C(c3ccc5ccccc5c3)CS4)[nH]n2)cc1` as the molecule, how does the Potency read?
Answer: Its Potency is inconclusive: 16.4 µM [inhibitor, single point].

Question: With `Cc1cc(C)c(C#N)c(N2CCN(CCOc3ccc(Cl)cc3)CC2)n1` as the molecule, how does the Potency read?
Answer: Its Potency is active: 18.4 µM.

Question: Which Potency does the source give for `CCOC(=O)c1ccc(NC(=O)CC2C(=O)N(c3ccc(F)cc3)C(=O)N2CCC(C)C)cc1` (stereo not given) here?
Answer: The Potency was inconclusive: 29.1 µM [inhibitor, single point].

Question: Which Potency does the source give for `CN(Cc1ccccc1)c1nc2c(c(=O)[nH]c(=O)n2C)n1CCCc1ccccc1` here?
Answer: The Potency was inconclusive: 29.1 µM [inhibitor, single point].

Question: Which Potency does the source give for `COC(=O)c1ccc2c(=O)n(Cc3ccco3)c(SCC(=O)Nc3ccc(C)c(Cl)c3)nc2c1` here?
Answer: Its Potency is inconclusive: 9.2 µM [activator, partial curve, poor fit].

Question: Which “activity change, negative = inhibition” value does the source give for `CC(=O)N1CCc2cc(S(=O)(=O)NCCC(=O)Nc3cccc(C)c3)ccc21` here?
Answer: The value was inactive: 15.6%.

Question: With `COc1ccc(-c2nnc(SCC(=O)NCc3cccs3)n2C(C)C)cc1` as the molecule, how does the “activity change, negative = inhibition” value read?
Answer: Its value is inactive: -7.93%.

Question: Which Potency does the source give for `CC(Sc1nc(N)cc(N)n1)C(=O)Nc1ccc(N2CCOCC2)cc1` (stereo not given) here?
Answer: The Potency was inconclusive: 20 µM [activator, single point].

Question: With `COc1cc2c(cc1OC)CN(CC(=O)Nc1ccc(C)cc1)CC2` as the molecule, how does the Potency read?
Answer: Its Potency is inconclusive: 29.1 µM [inhibitor, single point].

Question: With `COc1ccc(-n2cc(-c3ccccc3)c3c(NCCCN4CCOCC4)ncnc32)cc1` as the molecule, how does the Potency read?
Answer: Its Potency is inconclusive: 29.1 µM [inhibitor, single point].

Question: Which Potency does the source give for `Cc1cccc(C)c1Nc1c(-c2ccccn2)nc2ccccn12` here?
Answer: Its Potency is inconclusive: 25.9 µM [activator, partial curve].

Question: For `CN(Cc1nccn1C)C(=O)CC1C(=O)NCCN1CC(c1ccccc1)c1ccccc1` (stereo not given), which “activity change, negative = inhibition” value is on record?
Answer: Its value is inactive: 0.191%.

Question: With `Cc1ccc(S(N)(=O)=O)cc1NC(=O)c1ccc2c3c(cccc13)CC2` as the molecule, how does the “activity change, negative = inhibition” value read?
Answer: The value was inactive: 7.43%.

Question: For `CCOC(=O)c1ccc(Nc2cc(C)nc3nc(C)nn23)cc1`, which “activity change, negative = inhibition” value is on record?
Answer: Its value is inactive: 2.25%.

Question: With `Cc1cccc(C)c1NS(=O)(=O)c1ccc(-c2cnc(C3CC3)o2)cc1` as the molecule, how does the “activity change, negative = inhibition” value read?
Answer: The value was inactive: 1.3%.

Question: Which Potency does the source give for `Cc1nnc(SCC(=O)NNC(=O)c2ccccc2)n1Cc1ccccc1` here?
Answer: Its Potency is inconclusive: 18.3 µM [activator, single point].

Question: For `COc1ccccc1-c1sc2cc3c(cc2c1-c1ccc(O)cc1)OCO3`, which Potency is on record?
Answer: Its Potency is inconclusive: 23.1 µM [activator, single point].

Question: For `O=C(COC(=O)/C=C/c1ccc([N+](=O)[O-])cc1)NC1CCCCC1`, which “activity change, negative = inhibition” value is on record?
Answer: Its value is inactive: 17.3%.

Question: With `O=C(NC(=S)Nc1ccc(N2CCOCC2)c(Cl)c1)c1sc2ccccc2c1Cl` as the molecule, how does the Potency read?
Answer: Its Potency is inconclusive: 23.1 µM [activator, single point].

Question: With `CC(=O)NC1=NC(=O)/C(=C/c2cc(C)n(-c3ccc(NC(C)=O)cc3)c2C)S1` as the molecule, how does the Potency read?
Answer: The Potency was inconclusive: 18.3 µM [inhibitor, single point].

Question: With `O=C(N/N=C/c1ccccc1)c1[nH]c2ccc(Br)cc2c1-c1ccccc1` as the molecule, how does the “activity change, negative = inhibition” value read?
Answer: The value was inactive: 21.8%.

Question: For `O=C(NC(NC(=O)c1ccccc1)C(=O)c1ccccc1)c1ccccc1`, which Potency is on record?
Answer: The Potency was inconclusive: 29.1 µM [activator, single point].

Question: With `Cc1c(C(=O)Nc2cccc(F)c2)cnn1-c1ccccc1` as the molecule, how does the Potency read?
Answer: Its Potency is inconclusive: 3.66 µM [activator, partial curve].

Question: For `O=C(NC(=S)NCc1nc2ccccc2[nH]1)c1ccccc1F`, which Potency is on record?
Answer: The Potency was inconclusive: 23.1 µM [activator, partial curve, poor fit].

Question: For `O=[N+]([O-])c1ccc(Nc2ccccc2)c2nonc12`, which Potency is on record?
Answer: The Potency was inconclusive: 20.6 µM [inhibitor, partial curve].

Question: For `FC(F)Oc1ccc(-n2cc(-c3ccc(Cl)cc3)[n+]3c2CCCCC3)cc1`, which Potency is on record?
Answer: Its Potency is inconclusive: 20.6 µM [inhibitor, single point].

Question: With `COc1ccc(S(=O)(=O)N(C)CC(=O)Nc2ccccc2C(F)(F)F)cc1Cl` as the molecule, how does the “activity change, negative = inhibition” value read?
Answer: Its value is inactive: -20.3%.

Question: For `Cc1cccc(NC(=O)[C@H](Cc2ccccc2)NC(=O)[C@@H]2Cc3ccccc3CN2)c1`, which Potency is on record?
Answer: Its Potency is inconclusive: 16.4 µM [activator, single point].

Question: With `COc1cccc(/C=N/Nc2ncnc(Cl)c2N)c1O` as the molecule, how does the “activity change, negative = inhibition” value read?
Answer: Its value is inactive: 19.2%.

Question: With `CC1=CCC2C(=O)N(c3cccc(C(=O)Nc4ccc(Cl)cc4)c3)C(=O)C2C1` (stereo not given) as the molecule, how does the “activity change, negative = inhibition” value read?
Answer: Its value is inactive: -12%.

Question: Which Potency does the source give for `N#Cc1cc2c(nc1SCC(=O)Nc1sc3c(c1C#N)CCC3)CCCCCC2` here?
Answer: Its Potency is inconclusive: 29.1 µM [inhibitor, single point].

Question: With `O=C(Nc1ccc(Oc2cccnc2)cc1)C1CCN(Cc2cccc(Cl)c2)CC1` as the molecule, how does the “activity change, negative = inhibition” value read?
Answer: Its value is inactive: -20.7%.

Question: For `O=C(CCCc1c[nH]c2ccccc12)NCC1COc2ccccc2O1` (stereo not given), which Potency is on record?
Answer: The Potency was inconclusive: 7.3 µM [activator, partial curve, poor fit].

Question: With `CCOC(=O)c1nnc(-c2ccc(C)cc2)nc1Oc1ccc(Cl)cc1Cl` as the molecule, how does the “activity change, negative = inhibition” value read?
Answer: The value was inactive: 25.8%.

Question: With `O=[N+]([O-])c1ccc2nc(-c3ccc(OC(F)F)cc3)cn2c1` as the molecule, how does the Potency read?
Answer: Its Potency is inconclusive: 1.64 µM [activator, full curve].

Question: Which Potency does the source give for `Cc1cc(=O)[nH]c(N=N/C(=N/Nc2ccccc2C)c2ccccc2)n1` here?
Answer: The Potency was inconclusive: 3.26 µM [inhibitor, partial curve, poor fit].

Question: With `CN(C)S(=O)(=O)c1cccc(-c2cn3cccnc3n2)c1` as the molecule, how does the Potency read?
Answer: Its Potency is inconclusive: 23.1 µM [activator, partial curve, poor fit].

Question: Which Potency does the source give for `COc1cc2ccccc2cc1C(=O)Nc1ccccc1Cl` here?
Answer: Its Potency is inconclusive: 2.31 µM [activator, full curve].

Question: For `CCSc1nc(-c2cccnc2)ccc1C#N`, which “activity change, negative = inhibition” value is on record?
Answer: The value was inactive: -18.5%.

Question: With `O=C(NCc1ccc2c(c1)OCO2)c1ccc(Br)o1` as the molecule, how does the Potency read?
Answer: The Potency was inconclusive: 25.9 µM [activator, single point].

Question: Which “activity change, negative = inhibition” value does the source give for `COc1ccccc1-c1sc2cc3c(cc2c1-c1ccc(OCCN2CCCCC2)cc1)OCO3` here?
Answer: The value was inactive: -1.03%.

Question: Which “activity change, negative = inhibition” value does the source give for `COc1ccc(CCN2C(=O)CC(NNC(=O)c3ccccc3Br)C2=O)cc1OC` (stereo not given) here?
Answer: Its value is inactive: -5.29%.

Question: For `Cc1ccc(-c2nc3ccccc3nc2NN)cc1`, which Potency is on record?
Answer: The Potency was inconclusive: 10.3 µM [activator, partial curve].

Question: For `CC(=O)c1cc(C#N)c(SCC(=O)C(C)(C)C)nc1C`, which Potency is on record?
Answer: Its Potency is inconclusive: 14.6 µM [activator, partial curve, poor fit].

Question: With `O=C(CCc1ccccc1)Nc1ccc(NC(=O)c2ccco2)nc1` as the molecule, how does the Potency read?
Answer: Its Potency is inconclusive: 8.2 µM [activator, partial curve].

Question: With `N#Cc1cc2c(nc1SCc1nc3ccccc3[nH]1)CCC2` as the molecule, how does the Potency read?
Answer: The Potency was inconclusive: 1.46 µM [activator, partial curve].

Question: For `Cc1nn(-c2ccc(Cl)cc2)c(Cl)c1/C=C(\C#N)C(N)=O`, which Potency is on record?
Answer: The Potency was inconclusive: 10.3 µM [activator, partial curve].

Question: Which Potency does the source give for `Cn1ncc(Cl)c1C(=O)Nc1ccc2c(c1)CCC2` here?
Answer: Its Potency is inconclusive: 2.59 µM [activator, single point].

Question: Which Potency does the source give for `O=C(Nc1cccc(Cl)c1)Nc1ccc(Cl)cn1` here?
Answer: Its Potency is inconclusive: 20.6 µM [activator, single point].

Question: For `COc1ccc(S(=O)(=O)n2c(CCN3CCOCC3)nc3ccccc32)cc1`, which “activity change, negative = inhibition” value is on record?
Answer: The value was inactive: 16%.

Question: With `CCN(C(=O)COc1ccccc1)c1nnc(-c2cccnc2)s1` as the molecule, how does the Potency read?
Answer: The Potency was inconclusive: 18.4 µM [activator, single point].

Question: Which “activity change, negative = inhibition” value does the source give for `CCc1cccc(C)c1NC(=O)c1cc(=O)[nH]c2ccc(S(=O)(=O)N3CCOCC3)cc12` here?
Answer: The value was inactive: -0.31%.

Question: For `Cc1ccccc1NC(=O)CC(=O)c1ccccc1`, which Potency is on record?
Answer: Its Potency is inconclusive: 10.3 µM [activator, partial curve, poor fit].

Question: With `CN(C)c1nc(-c2ccccn2)nnc1-c1ccccc1` as the molecule, how does the Potency read?
Answer: The Potency was inconclusive: 16.4 µM [inhibitor, single point].

Question: With `c1coc(CNc2ncnc3nc[nH]c23)c1` as the molecule, how does the “activity change, negative = inhibition” value read?
Answer: The value was inactive: 0.215%.
